The values below come from the supplement of paper PMC10849652.

Sequences of proteins named here, by UniProt entry; tags and fusion partners are left off. A change or cut given only in a name is not applied to a line headed by its entry.
UniProt Q9NSC7: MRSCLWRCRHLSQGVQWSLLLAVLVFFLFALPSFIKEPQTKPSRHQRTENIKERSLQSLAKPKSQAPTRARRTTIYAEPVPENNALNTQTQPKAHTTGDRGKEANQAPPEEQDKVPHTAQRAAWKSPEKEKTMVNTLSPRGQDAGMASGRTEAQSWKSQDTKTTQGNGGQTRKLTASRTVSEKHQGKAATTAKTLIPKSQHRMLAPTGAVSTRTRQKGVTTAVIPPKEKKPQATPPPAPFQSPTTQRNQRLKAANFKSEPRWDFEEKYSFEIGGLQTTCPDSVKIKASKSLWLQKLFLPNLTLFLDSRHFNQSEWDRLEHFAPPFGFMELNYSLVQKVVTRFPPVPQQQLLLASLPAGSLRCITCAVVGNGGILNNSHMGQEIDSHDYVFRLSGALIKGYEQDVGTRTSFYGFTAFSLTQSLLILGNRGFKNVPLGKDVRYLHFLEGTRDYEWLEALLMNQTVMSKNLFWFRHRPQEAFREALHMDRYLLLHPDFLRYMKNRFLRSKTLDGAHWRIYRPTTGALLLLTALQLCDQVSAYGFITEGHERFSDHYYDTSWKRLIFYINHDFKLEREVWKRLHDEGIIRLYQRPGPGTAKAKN
UniProt P61009: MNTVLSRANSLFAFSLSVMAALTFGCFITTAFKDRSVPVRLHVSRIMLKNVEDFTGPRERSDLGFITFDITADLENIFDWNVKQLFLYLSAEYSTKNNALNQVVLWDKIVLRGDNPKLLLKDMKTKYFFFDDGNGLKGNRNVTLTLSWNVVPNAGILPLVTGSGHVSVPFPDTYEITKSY
UniProt Q16384, whole entry, looked up: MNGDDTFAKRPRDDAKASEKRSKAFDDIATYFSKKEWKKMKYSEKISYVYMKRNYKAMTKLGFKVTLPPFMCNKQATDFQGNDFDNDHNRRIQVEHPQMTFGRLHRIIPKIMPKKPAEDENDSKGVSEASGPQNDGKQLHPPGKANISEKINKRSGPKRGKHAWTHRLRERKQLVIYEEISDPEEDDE
UniProt O15020, whole entry, looked up: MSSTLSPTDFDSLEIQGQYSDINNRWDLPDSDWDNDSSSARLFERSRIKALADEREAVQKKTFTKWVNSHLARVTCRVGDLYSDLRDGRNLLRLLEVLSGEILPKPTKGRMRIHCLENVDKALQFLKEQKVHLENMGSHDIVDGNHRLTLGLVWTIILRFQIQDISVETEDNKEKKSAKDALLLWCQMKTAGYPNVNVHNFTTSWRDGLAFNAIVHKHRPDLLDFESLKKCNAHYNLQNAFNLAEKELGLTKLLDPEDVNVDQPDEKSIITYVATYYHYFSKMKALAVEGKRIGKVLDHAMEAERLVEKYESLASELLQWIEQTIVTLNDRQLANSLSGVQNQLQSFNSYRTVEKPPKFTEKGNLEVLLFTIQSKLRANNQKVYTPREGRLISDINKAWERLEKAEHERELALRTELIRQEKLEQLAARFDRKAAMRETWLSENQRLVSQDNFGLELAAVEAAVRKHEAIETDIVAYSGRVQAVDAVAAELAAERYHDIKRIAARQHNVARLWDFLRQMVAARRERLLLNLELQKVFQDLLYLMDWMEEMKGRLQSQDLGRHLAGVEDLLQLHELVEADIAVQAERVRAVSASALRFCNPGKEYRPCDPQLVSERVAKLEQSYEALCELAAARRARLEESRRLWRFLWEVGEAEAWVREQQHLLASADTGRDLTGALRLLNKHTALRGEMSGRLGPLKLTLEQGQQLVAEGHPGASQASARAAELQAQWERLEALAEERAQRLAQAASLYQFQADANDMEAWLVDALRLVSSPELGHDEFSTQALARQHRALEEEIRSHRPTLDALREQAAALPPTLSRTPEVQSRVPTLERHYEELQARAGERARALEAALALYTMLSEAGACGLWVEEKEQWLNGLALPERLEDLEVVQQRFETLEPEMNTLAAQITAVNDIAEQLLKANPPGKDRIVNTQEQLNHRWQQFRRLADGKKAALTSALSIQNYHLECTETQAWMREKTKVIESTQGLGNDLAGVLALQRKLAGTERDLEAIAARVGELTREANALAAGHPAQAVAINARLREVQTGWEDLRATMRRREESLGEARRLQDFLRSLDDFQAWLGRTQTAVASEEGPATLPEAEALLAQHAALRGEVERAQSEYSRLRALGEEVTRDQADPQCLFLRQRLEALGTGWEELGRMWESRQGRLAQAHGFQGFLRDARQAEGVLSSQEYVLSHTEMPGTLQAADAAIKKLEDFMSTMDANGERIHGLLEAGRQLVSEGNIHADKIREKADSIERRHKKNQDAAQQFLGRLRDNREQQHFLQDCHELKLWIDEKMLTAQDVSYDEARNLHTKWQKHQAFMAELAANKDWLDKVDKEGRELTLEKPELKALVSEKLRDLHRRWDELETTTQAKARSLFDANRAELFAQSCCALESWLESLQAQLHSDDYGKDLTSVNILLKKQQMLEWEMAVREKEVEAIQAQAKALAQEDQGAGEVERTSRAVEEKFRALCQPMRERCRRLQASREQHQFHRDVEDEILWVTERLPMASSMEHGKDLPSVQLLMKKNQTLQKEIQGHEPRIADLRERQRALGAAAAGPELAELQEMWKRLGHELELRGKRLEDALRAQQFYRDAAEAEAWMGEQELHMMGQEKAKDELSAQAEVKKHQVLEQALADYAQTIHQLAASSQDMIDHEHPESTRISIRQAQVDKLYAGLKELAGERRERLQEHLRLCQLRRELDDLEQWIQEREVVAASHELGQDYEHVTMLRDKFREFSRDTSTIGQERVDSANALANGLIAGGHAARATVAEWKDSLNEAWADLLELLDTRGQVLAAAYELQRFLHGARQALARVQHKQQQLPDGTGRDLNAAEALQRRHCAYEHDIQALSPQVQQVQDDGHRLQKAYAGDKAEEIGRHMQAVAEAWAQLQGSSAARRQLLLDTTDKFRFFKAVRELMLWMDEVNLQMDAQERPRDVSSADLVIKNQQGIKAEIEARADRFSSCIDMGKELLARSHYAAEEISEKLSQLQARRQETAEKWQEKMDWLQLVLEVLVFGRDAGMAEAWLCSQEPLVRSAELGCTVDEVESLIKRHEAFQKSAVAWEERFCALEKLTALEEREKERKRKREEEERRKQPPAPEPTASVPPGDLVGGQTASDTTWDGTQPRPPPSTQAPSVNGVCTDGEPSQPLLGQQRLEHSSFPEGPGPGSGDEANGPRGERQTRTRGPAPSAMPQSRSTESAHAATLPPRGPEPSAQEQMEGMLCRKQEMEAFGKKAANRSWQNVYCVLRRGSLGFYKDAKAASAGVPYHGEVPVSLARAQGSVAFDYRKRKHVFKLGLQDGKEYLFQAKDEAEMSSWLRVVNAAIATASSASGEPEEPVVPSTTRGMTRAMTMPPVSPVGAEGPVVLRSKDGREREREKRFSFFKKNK
UniProt P49675, whole entry, looked up: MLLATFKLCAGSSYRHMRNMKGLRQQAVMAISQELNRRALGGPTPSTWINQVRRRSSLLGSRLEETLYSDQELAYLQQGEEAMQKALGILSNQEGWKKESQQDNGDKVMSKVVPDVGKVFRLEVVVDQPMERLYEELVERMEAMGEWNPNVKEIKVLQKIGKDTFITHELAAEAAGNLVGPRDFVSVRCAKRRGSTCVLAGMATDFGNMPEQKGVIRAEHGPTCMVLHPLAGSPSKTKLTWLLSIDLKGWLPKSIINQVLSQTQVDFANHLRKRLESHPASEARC
UniProt Q8TCT8: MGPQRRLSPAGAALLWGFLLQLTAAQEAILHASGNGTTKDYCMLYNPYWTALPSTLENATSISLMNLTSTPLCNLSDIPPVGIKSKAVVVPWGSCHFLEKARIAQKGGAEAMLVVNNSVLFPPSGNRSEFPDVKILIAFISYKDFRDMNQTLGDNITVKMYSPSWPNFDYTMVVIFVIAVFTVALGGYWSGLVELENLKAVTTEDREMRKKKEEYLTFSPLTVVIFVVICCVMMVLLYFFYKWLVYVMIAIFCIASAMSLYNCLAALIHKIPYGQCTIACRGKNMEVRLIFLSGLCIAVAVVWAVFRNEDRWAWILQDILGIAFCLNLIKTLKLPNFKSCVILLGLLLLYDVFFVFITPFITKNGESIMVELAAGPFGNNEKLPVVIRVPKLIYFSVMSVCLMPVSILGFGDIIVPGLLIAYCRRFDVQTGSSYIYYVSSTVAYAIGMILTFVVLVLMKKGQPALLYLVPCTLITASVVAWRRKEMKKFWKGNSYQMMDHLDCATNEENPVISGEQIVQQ
UniProt Q9NUQ6: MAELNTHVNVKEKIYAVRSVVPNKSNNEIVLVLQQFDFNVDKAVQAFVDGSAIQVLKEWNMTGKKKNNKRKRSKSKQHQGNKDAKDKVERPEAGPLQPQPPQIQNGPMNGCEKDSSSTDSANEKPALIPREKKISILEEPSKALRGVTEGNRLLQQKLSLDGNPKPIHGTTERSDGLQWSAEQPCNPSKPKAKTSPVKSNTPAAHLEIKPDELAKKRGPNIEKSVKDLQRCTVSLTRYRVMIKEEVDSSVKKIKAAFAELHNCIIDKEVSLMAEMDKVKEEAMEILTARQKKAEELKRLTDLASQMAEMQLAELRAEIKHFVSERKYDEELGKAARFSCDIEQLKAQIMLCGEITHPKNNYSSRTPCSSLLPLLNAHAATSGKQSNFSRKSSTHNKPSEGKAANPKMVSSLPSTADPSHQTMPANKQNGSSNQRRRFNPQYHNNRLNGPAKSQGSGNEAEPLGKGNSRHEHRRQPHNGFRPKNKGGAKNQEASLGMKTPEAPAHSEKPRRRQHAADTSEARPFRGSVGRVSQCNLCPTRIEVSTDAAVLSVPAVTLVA

Some of the results follow.

Holding throughout (test): log2 fold change, soluble protein after heating vs DMSO (PISA); higher = thermal stabilisation; K562 lysate, 10 uM; active = over 0.2 and 3.5 SD of the protein, either way, in both replicates (recomputed)
Compound in assay [1]: C#Cc1cccc(Nc2ncnc3cc(OCCOC)c(OCCOC)cc23)c1 [erlotinib]
The method, boiled down: (§1)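 A 30 min treatment with 10 μM compound was applied to crude K562 extract at 1 mg/mL protein in PBS pH 7.4 with 1 mM MgCl2. Heating for 3 min spanned 48°C-58°C, after which aliquots were pooled, adjusted to 0.5% NP-40 at 4°C and spun at 21,000xg for 90 min. TMTpro 16plex LC-MS/MS of the supernatant, with channel sums equalised, gave values recorded as log-two fold change in thermal stability against solvent controls, from duplicates.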

Compound in assay [2]: C/C(=N\NC(=O)C1=CC(=CC=C1)S(=O)(=O)N2CCOCC2)/C3=C(C=CC(=C3)Cl)O
In a few lines:
as §1

Compound in assay [3]: C1=CC(=CC=C1C2=NC3=C(N2)C=C(C=C3)C(=O)N)OC4=CC=C(C=C4)Cl
In a few lines:
as §1

Compound in assay [4]: C1=CC2=C(C=CC(=C2)/C=C\3/C(=O)NC(=NCC4=CC=CS4)S3)N=C1
In a few lines:
as §1

Compound in assay [5]: C1=CC2=NC=CN=C2C=C1/C=C/3\C(=O)NC(=O)S3
The method, boiled down: as §1

Compound in assay [6]: C1=CC=C(C=C1)C2=NC(=C(N2)C3=CC=NC=C3)C4=CC(=C(C=C4)Cl)O
The method, boiled down:
as §1

Compound in assay [7]: C1=CC=C2C(=C1)C3=NNC4=CC=CC(=C43)C2=O
The method, boiled down: as §1

Compound in assay [8]: C1CCN(C1)C(=O)NC2=CC=CC(=C2)NC3=NC=C(C(=N3)NCCC4=CN=CN4)Br
The method, boiled down: as §1

Compound in assay [9]: C1CN(CCC1(CC2=CC=C(C=C2)Cl)N)C3=NC=NC4=C3C=CN4
In a few lines: as §1

Compound in assay [10]: C1COCCN1CCN2C3=CC=CC=C3N=C2NC(=O)C4=CC(=CC=C4)[N+](=O)[O-] [IRAK-1-4 Inhibitor I]
In a few lines:
as §1

Compound in assay [11]: C=CC(=O)N1CCC[C@@H](n2nc(-c3ccc(Oc4ccccc4)cc3)c3c(N)ncnc32)C1 [ibrutinib]
The method, boiled down: as §1

Compound in assay [12]: CC(C)(C)Cn1c(N)nc2ccc(-c3[nH]c(C(C)(C)C)nc3-c3ccc(F)cc3)nc21 [ralimetinib]
In a few lines:
as §1

Compound in assay [13]: CC(C)(O)CC(=O)NCCn1ccc2ncnc(Nc3ccc(Oc4cccc(C(F)(F)F)c4)c(Cl)c3)c21
In a few lines:
as §1

Compound in assay [14]: CC(C)C1=C2N=C(C=C(N2N=C1)NCC3=CC=CC=C3)NCCCCCCN
In a few lines: as §1

Compound in assay [15]: CC1=C(C(CC(=O)N1)C2=CC=C(C=C2)C(F)(F)F)C(=O)NC3=C(C=C4C(=C3)C=NN4)F
In a few lines: as §1

Compound in assay [16]: CC1=C(C2=C(C=C1)C(=O)C3=CC=CC=C3N2CCCN)C
The method, boiled down: as §1

Compound in assay [17]: CC1=C(C=C(C=C1)NC(=O)C2=CC(=CC=C2)C(C)(C)C#N)NC3=CC4=C(C=C3)N=CN(C4=O)C
The method, boiled down: as §1

Compound in assay [18]: CC1=C(C=C(C=C1)NC(=O)C2=CC(=CC=C2)N(C)C)NC(=O)C3=CC=C(C=C3)O
In a few lines: as §1

Compound in assay [19]: CC(=O)c1cnc2ccc(-c3cc(Cl)c(O)c(Cl)c3)nc2c1N[C@H]1CC[C@H](CN(C)C)CC1
In a few lines:
as §1

Compound in assay [20]: CC1=CC=C(C=C1)SC2=C3C=C(SC3=CN=C2)C(=O)N
In a few lines: as §1

ST6GALNAC1 (UniProt Q9NSC7): the log2 fold change in assay [1] is inactive: 0.034; in [2] it was inactive: -0.11; in assay [3], inactive: 0.022; in assay [4], inactive: 0.043; in [5] it was inactive: -0.044; in assay [6], inactive: -0.049. For the same target, the log2 fold change in [7] was inactive: -0.052; in assay [8], inactive: 0.042; in [9] it was inactive: -0.025; in assay [10] it was inactive: 0.04; in assay [11], inactive: 0.041; in assay [12] it was inactive: 0.09. In addition, the log2 fold change in [13] is inactive: 0.023; in [14], inactive: -0.008; in assay [15], inactive: 0.091; in assay [16] it was inactive: -0.059; in assay [17], inactive: 0; in [18], inactive: -0.061.
With SPCS3 (UniProt P61009), the log2 fold change is inactive: -0.031 in [1]; inactive: -0.041 in assay [2]; inactive: -0.004 in assay [3]; inactive: 0.039 in assay [4]; inactive: 0.007 in [5]; inactive: 0.001 in assay [6]. The log2 fold change was inactive: 0 in assay [7]; inactive: -0.021 in assay [8]; inactive: 0.029 in [9]; inactive: -0.06 in assay [10]; inactive: -0.02 in assay [11]; inactive: 0.016 in assay [19]. For the same target, the log2 fold change was inactive: -0.014 in assay [12]; inactive: 0.03 in [13]; inactive: -0.036 in assay [14]; inactive: 0.043 in [15]; inactive: 0.008 in [16]; inactive: -0.078 in [17]. For the same target, the log2 fold change in [18] is inactive: 0.005; in assay [20] it was inactive: 0.038.
For the target SSX1 (UniProt Q16384), the log2 fold change in assay [1] was inactive: 0.241; in [2], inactive: -0.158; in assay [3] it was inactive: 0.001; in assay [4], inactive: 0.009; in [6], inactive: 0.028; in assay [7] it was inactive: -0.021. Also, the log2 fold change is inactive: -0.079 in assay [8]; inactive: 0.044 in [9]; inactive: -0.288 in [10]; inactive: 0.047 in assay [12]; inactive: -0.038 in assay [13]; inactive: -0.202 in assay [14]. In addition, the log2 fold change in assay [16] is inactive: 0.106; in [17], inactive: 0.054; in assay [18] it was inactive: 0.308.
For the target SPTBN2 (UniProt O15020), the log2 fold change was inactive: 0.038 in assay [1]; inactive: 0.083 in [2]; inactive: -0.042 in [3]; inactive: 0.023 in assay [4]; inactive: -0.006 in assay [5]; inactive: 0.011 in assay [6]. Besides, the log2 fold change in [7] was inactive: 0.024; in assay [8] it was inactive: -0.016; in assay [9], inactive: -0.023; in assay [10], inactive: -0.058; in assay [11], inactive: 0.027; in [19] it was inactive: -0.034. Also, the log2 fold change in assay [12] was inactive: -0.026; in assay [13] it was inactive: 0.005; in [14], inactive: 0.002; in assay [15] it was inactive: -0.036; in assay [16] it was inactive: 0.021; in [17], inactive: -0.04. Moreover, the log2 fold change in assay [18] was inactive: 0.003; in assay [20], inactive: 0.02.
For STAR (UniProt P49675), the log2 fold change in assay [1] is inactive: 0.207; in [2], inactive: 0.01; in [3], inactive: -0.192; in assay [4], inactive: -0.029; in [6] it was inactive: 0.042; in assay [7], inactive: -0.058. Moreover, the log2 fold change in assay [8] is inactive: -0.125; in assay [9], inactive: -0.035; in assay [10] it was inactive: -0.031; in [12], inactive: -0.139; in [13] it was inactive: 0.02; in assay [14], inactive: 0.073. Besides, the log2 fold change in assay [15] is inactive: -0.027; in assay [16], inactive: -0.052; in [17] it was inactive: -0.049; in assay [18], inactive: -0.039.
On to SPPL2A (UniProt Q8TCT8), for which the log2 fold change in assay [1] is inactive: 0.005; in [2], inactive: -0.007; in assay [3] it was inactive: 0.118; in assay [4] it was inactive: -0.104; in assay [5] it was inactive: -0.011; in [6], inactive: -0.07. The log2 fold change in assay [7] is inactive: -0.141; in [8], inactive: -0.082; in [9], active: -0.644; in [10], inactive: 0.014; in assay [11], inactive: -0.081; in assay [19] it was inactive: 0.154. The log2 fold change was inactive: -0.152 in assay [12]; inactive: -0.219 in assay [13]; inactive: 0.004 in assay [14]; inactive: 0.138 in [17]; inactive: 0.091 in [18]; inactive: -0.008 in assay [20].
Turning to SPATS2L isoform 2 (UniProt Q9NUQ6), the log2 fold change was inactive: 0.034 in assay [1]; inactive: -0.312 in [2]; inactive: -0.061 in assay [3]; inactive: 0.1 in assay [4]; inactive: 0.001 in [5]; inactive: -0.012 in assay [6]. Besides, the log2 fold change in [7] is inactive: -0.007; in [8] it was inactive: 0.039; in assay [9], inactive: 0.017; in assay [10], inactive: 0.119; in [11], inactive: 0; in assay [19], inactive: -0.139. Also, the log2 fold change in [12] was inactive: 0.019; in assay [13], inactive: -0.039; in [14], inactive: 0.127; in assay [15], inactive: -0.002; in assay [17], inactive: 0.026; in assay [18] it was inactive: 0.127. In assay [20], the log2 fold change was inactive: -0.06.
